Assay [1] concerns the target T1, SPL15 (yeast two-hybrid fusion) (Arabidopsis thaliana) (UniProt Q9M2Q6).
T1 sequence: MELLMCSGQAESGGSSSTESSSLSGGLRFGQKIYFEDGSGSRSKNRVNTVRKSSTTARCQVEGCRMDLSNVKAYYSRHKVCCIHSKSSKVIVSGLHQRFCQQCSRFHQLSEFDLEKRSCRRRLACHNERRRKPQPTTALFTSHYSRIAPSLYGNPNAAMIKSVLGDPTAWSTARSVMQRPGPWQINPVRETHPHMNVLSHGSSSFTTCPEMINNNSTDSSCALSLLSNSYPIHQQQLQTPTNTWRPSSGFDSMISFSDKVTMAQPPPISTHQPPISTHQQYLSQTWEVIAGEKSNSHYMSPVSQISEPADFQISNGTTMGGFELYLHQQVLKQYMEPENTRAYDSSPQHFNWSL
Description: two-hybrid; LexA/AD system in yeast strain EGY48 plus H18; SD/-Ura/-Trp/-His, then raffinose, galactose and X-gal for blue color development.

For assay [2], the target named is T2, SPL9 (yeast two-hybrid fusion) (Arabidopsis thaliana) (UniProt Q700W2).
T2 sequence: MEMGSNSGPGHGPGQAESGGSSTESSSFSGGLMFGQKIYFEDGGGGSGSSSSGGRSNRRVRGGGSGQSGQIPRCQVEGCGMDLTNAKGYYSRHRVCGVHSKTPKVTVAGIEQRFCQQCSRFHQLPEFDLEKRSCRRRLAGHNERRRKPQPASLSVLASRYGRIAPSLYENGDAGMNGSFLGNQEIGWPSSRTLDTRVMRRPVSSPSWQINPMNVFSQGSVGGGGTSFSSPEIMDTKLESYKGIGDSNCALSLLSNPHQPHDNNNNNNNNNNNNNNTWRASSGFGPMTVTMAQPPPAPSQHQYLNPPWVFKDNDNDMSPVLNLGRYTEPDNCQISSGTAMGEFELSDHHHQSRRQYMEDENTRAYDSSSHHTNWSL
Described as above.

No constants are given. Whether binding was seen depends on the method and setting. Binding calls can cover weak binding; strength is not graded here. Tags and fused reporters may be left off the sequences shown.

This passage reports binding results from paper PMC7181604, “Arabidopsis FHY3 and FAR1 integrate light and strigolactone signaling to regulate branching”.

Regarding “FHY3-II domain (yeast two-hybrid fusion) (Arabidopsis thaliana) (domain or fragment)”, the binding entry in assay [1] and in assay [2] was “binds” in each case.
“FHY3-III domain (yeast two-hybrid fusion) (Arabidopsis thaliana) (domain or fragment)”: the binding result in assay [1] and in assay [2] was “no binding” throughout.
